In article PMC7665193:
No constants are given. Whether binding was seen depends on the method and setting. Binding seen in cells or lysates may run through a third protein. Some binding calls cover weakened binding; strength is not graded here. Tags and fused reporters may be left off the sequences shown.

Molecular target: T1, Flag-UBE2F (UniProt Q969M7)
T1 sequence: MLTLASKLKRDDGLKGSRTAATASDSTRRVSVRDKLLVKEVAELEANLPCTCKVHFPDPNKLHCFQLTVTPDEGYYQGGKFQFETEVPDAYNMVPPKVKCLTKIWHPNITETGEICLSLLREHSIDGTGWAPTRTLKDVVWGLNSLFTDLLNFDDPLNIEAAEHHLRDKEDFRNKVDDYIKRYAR
Experiment: co-IP; Flag-UBE2F precipitated from transfected H1299 cell lysate on anti-Flag M2 affinity resin, 3 h at 4 °C, NP-40 buffer (50 mM Tris-HCl pH 7.4, 150 mM NaCl, 0.1% NP-40); cells treated with cisplatin (Cis) or carboplatin (Carbo) for 48 h; endogenous RBX1, RBX2 and NOXA detected by western blot

B1: NOXA (protein, UniProt Q13794 1-54)
chain: MPGKKARKNAQPSPARAPAELEVECATQLRRFGDKLNFRQKLLNLISKLFCSGT
  binding: binds
